Assay results taken from patent US6512102B1, “Compositions and methods of diagnosis and treatment using casein kinase I” (Chiron Corporation, priority 1998, dated 2003).
Some of these results come from one statement about several compounds together.

Test system: Lef-1 dependent transcription
Experiment: Lef-1 enhancer luciferase reporter assay in Cos cells
Assay type: cell-based
Conditions: transfected alone with the reporter construct
Protocol: Combinations of Wnt-1, CKIε, CKI kinase dead variant (lys→arg 38) and Lef-1 were transfected into Cos cells with a luciferase gene driven by multiple copies of Lef enhancer elements. As an internal control of transfection efficiency, the β-galactosidase gene driven by the SV40 promoter was co-transfected in all samples. 24 hours after transfection, cells were lysed and the lysate was tested for luciferase activity. The luciferase activity was normalized with respect to β-galactosidase activity. […] Dorsoanterior index (DAI) grade numbers were assigned to the phenotypes of the embryos. A grade 5 embryo is normal; a grade 3 embryo is cyclopic (one eye); a grade 1 embryo has a tail fin and somites but no head (acephalic); and a grade 0 embryo has no dorsoanterior structures (Kao et al., 1988).
The effect of CKI on Lef-1 dependent transcription in Cos mammalian cells was examined. A luciferase reporter gene driven by multiple copies of the Lef-I enhancer sequence was used. When only Wnt-I or lef-I or CKIε was transfected with the reporter construct, luciferase activity was induced only 2 to 3 fold (FIG. 1A). When Lef-1 was cotransfected with either Wnt-1 or CKIε, luciferase activity was induced 30 or 12 fold respectively.
Luciferase reporter plasmid contains multiple Lef-I enhancer sites upstream of the fos basal promoter. […]

B1: Wnt-1: Wnt-1 expressed from transfected plasmid (protein, UniProt P04628 28-370, looked up)
Proto-oncogene Wnt-1: ANSSGRWWGIVNVASSTNLLTDSKSLQLVLEPSLQLLSRKQRRLIRQNPGILHSVSGGLQSAVRECKWQFRNRRWNCPTAPGPHLFGKIVNRGCRETAFIFAITSAGVTHSVARSCSEGSIESCTCDYRRRGPGGPDWHWGGCSDNIDFGRLFGREFVDSGEKGRDLRFLMNLHNNEAGRTTVFSEMRQECKCHGMSGSCTVRTCWMRLPTLRAVGDVLRDRFDGASRVLYGNRGSNRASRAELLRLEPEDPAHKPPSPHDLVYFEKSPNFCTYSGRLGTAGTAGRACNSSSPALDGCELLCCGRGHRTRTQRVTERCNCTFHWCCHVSCRNCTHTRVLHECL
luciferase activity induced: 2 to 3 fold

B2: CKIε: mouse casein kinase I ε, SEQ ID NO:1, 416 amino acids, 98.9% identical to human CKIε; expressed from transfected cDNA (protein)
chain: MELRVGNKYRLGRKIGSGSFGDIYLGANIASGEEVAIKLECVKTKHPQLHIESKFYKMMQGGVGIPSIKWCGAEGDYNVMVMELLGPSLEDLFNFCSRKFSLKTVLLLADQMISRIEYIHSKNFIHRDVKPDNFLMGLGKKGNLVYIIDFGLAKKYRDARTHQHIPYRENKNLTGTARYASINTHLGIEQSRRDDLESLGYVLMYFNLGSLPWQGLKAATKRQKYERISEKKMSTPIEVLCKGYPSEFSTYLNFCRSLRFDDKPDYSYLRQLFRNLFHRQGFSYDYVFDWNMLKFGAARNPEDVDRERREHEREERMGQLRGSATRALPPGPPTGATANRLRSAAEPVASTPASRIQQTGNTSPRAISRADRERKVSMRLHRGAPANVSSSDLTGRQEVSRLAASQTSVPFDHLGK
modifications: HA tag; Mus Casein Kinase I epsilon
notes: expressed from transfected cDNA
luciferase activity induced: 2 to 3 fold
